Results published in publication PMC12315821.
These are yes or no findings as the source states them, for the method shown. Binding seen in cells or lysates may run through a third protein. Some results given as binding are weak or reduced against the parent protein; the word gives no strength. For part of these data: Where a sequence is shown, tags or fusion partners need not be part of it.

Chains of the proteins cited; added tags and fusions are not shown. Residues count along the entry.
UniProt Q86WV6: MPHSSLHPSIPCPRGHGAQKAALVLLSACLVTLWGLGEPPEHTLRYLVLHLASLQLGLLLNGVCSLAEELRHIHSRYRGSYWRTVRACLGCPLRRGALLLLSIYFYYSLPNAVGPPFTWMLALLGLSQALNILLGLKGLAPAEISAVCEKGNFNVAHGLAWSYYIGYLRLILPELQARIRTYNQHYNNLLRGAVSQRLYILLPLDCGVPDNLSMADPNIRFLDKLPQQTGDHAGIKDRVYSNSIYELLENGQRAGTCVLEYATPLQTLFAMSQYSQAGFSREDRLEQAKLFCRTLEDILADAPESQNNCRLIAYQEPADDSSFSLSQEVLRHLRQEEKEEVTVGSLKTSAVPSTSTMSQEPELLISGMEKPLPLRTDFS
UniProt Q15843, residues 1-76: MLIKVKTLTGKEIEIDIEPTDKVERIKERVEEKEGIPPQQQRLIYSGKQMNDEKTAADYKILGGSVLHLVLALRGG

What was measured:
HA-TRIM56 = target: T1, HA-TRIM56 (UniProt Q9BRZ2); assay: co-IP; anti-HA precipitation from 293T lysates transfected with MYC-NEDD8 or Flag-STING and HA-TRIM56 constructs
T1 sequence: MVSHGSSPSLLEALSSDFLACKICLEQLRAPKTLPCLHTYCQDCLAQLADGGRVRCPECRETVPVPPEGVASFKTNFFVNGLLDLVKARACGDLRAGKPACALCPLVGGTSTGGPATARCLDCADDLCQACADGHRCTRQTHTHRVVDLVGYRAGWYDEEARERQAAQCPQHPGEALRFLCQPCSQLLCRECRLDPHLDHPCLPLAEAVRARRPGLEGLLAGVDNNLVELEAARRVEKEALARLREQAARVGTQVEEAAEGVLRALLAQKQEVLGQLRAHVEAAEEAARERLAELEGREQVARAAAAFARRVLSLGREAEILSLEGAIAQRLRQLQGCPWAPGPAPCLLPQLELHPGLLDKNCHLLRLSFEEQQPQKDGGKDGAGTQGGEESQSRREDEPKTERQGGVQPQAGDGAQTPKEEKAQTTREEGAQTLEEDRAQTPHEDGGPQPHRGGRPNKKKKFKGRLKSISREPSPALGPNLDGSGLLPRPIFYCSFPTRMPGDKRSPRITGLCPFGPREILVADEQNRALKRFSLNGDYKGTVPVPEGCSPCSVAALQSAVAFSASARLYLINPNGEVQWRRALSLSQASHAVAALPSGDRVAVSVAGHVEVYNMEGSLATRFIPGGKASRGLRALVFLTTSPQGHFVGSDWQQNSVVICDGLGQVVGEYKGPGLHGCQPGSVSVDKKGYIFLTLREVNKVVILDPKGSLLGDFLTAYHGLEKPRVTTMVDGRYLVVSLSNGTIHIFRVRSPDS

[1] = target: T2, TRIM56, endogenous in SH-SY5Y cells (human (endogenous in SH-SY5Y)) (UniProt Q9BRZ2); assay: co-IP; endogenous proteins in SH-SY5Y lysates, cells with or without NETs; Pierce Crosslink Magnetic Co-IP Kit, lysates with antibody-bound beads overnight at 4°C; for NEDD8-STING (Figure 7J) MG132 (10 μM) for 6 hours and TRIM56 knockdown
T2 sequence: T1 sequence

[2] = target: STING, endogenous in SH-SY5Y cells (human (endogenous in SH-SY5Y)) (UniProt Q86WV6); assay: as above
[3] = target: neuronal precursor cell-expressed developmentally down-regulated protein 8 (NEDD8), endogenous in SH-SY5Y cells (human (endogenous in SH-SY5Y)) (UniProt Q15843); assay: as above
Flag-STING = Flag-STING (UniProt Q86WV6); assay: co-IP; anti-Flag precipitation from 293T lysates transfected with HA-TRIM56 and Flag-STING constructs

Flag-STING (from UniProt Q86WV6 1-379)
binding (HA-TRIM56): binds

MYC-NEDD8 (from UniProt Q15843 1-76)
binding (HA-TRIM56): binds

STING, endogenous in SH-SY5Y cells (from UniProt Q86WV6 1-379)
binding [1]: binds

neuronal precursor cell-expressed developmentally down-regulated protein 8 (NEDD8), endogenous in SH-SY5Y cells (from UniProt Q15843 1-76)
binding [2]: binds

B1: TRIM56, endogenous in SH-SY5Y cells (protein, UniProt Q9BRZ2 1-755)
chain: T1 sequence
binding [3]: binds

B2: HA-TRIM56 (protein, UniProt Q9BRZ2 1-755)
chain: T1 sequence
binding (Flag-STING): binds
